Assay results published in the supplement of paper PMC6089552.
The hits were mostly taken out for another list; the other results follow.

Test system: A673/TR/shEF
Assay: cell viability (LOESS-normalised, relative to median of negative controls) (log2 ratio); higher = more viable cells (less compound effect), active = hit call of the paper (over 3 MAD below the median)
Settings: treatment time: 72 h
Procedure, shortened: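 Doxycycline, present or absent from 24 h before compounds, was used to induce EWS-FLI1 shRNA knockdown in A673/TR/shEF Ewing sarcoma cells at 1,500 per well in 384-well plates. Cells then received library compounds at two or more concentrations, or DMSO controls, for three days. Viability was measured by CellTiter-Glo luminescence on an Envision reader, and per-plate LOESS correction, division by the negative-control median and log2 transformation followed.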

Measured: cell viability (log2)

CN1C2CCC1CC(OC(=O)C(O)c1ccccc1)C2 (stereo not drawn)
inactive: 0.25 µM, library screen: screen1, EWS-FLI1 expression: high (no doxycycline) 0.123 | 0.25 µM, library screen: screen1, EWS-FLI1 expression: low (doxycycline-induced shRNA knockdown) 0.0672 | 0.25 µM, library screen: screen2, EWS-FLI1 expression: high (no doxycycline) 0.161 | 0.25 µM, library screen: screen2, EWS-FLI1 expression: low (doxycycline-induced shRNA knockdown) 0.0942 | 2.5 µM, library screen: screen1, EWS-FLI1 expression: high (no doxycycline) 0.205 | 2.5 µM, library screen: screen1, EWS-FLI1 expression: low (doxycycline-induced shRNA knockdown) 0.183 | 2.5 µM, library screen: screen2, EWS-FLI1 expression: high (no doxycycline) 0.182 | 2.5 µM, library screen: screen2, EWS-FLI1 expression: low (doxycycline-induced shRNA knockdown) 0.0952
